Our source for the IC50 values is patent publication US20070110817A1, “Biological active blood serum obtained by electrostimulation” (Owen Holding Ltd., priority 2004, published 2007).

What all share (assay): MTT-test cell survival
Holding throughout (type): cell-based
For orientation: Tetrazolium assays rely on reduction of a dye to a coloured formazan, in cell work by metabolically active cells.

For one test, the system named is HeLa cells. Particulars: Homo sapiens. As to the method:
(§1) The blood serum of the present invention is a lyophilized chicken blood treated with electroshock of grade II to III and γ-radiation. The biological active serum was used in two formulations types: (i) serum resuspended in water at a concentration of 100 mg/ml (trial fraction 1) and (ii) the supernatant of the suspension of 100 mg/ml biological active serum in water after three minute of centrifugation of the suspension at 10.000×g (trial fraction 2).
(§2) The cells of the Jurkat and Raji cell line as well as lymphocytes of the human peripheral blood were cultured in plastic tissue culture plates (Nunc or Falcon) in 1640-RPMI medium (Sigma) containing 10% fetal calf serum (FCS, Gibco), 100 units/ml penicilin and 100 μg/ml streptomycin at a temperature of 37° C., at 5% CO2 content and 95% humidity. The cell lines Bro, HeLa, MCF-7, Mg63, HT1080, IMR-32 as well as HepG2 were cultivated as above, however, using DMEM medium (Sigma) instead of 1640-RPMI medium.
(§3) The MTT-test was carried out as described by Mosmann T. (Rapid colorimetric assay for cellular growth and survival: application to proliferation and cytotoxicity assays (1983) J. Immunol. Meth. 65: 55-63).
(§4) To carry out the test cells were collected in the log. phase (adherent cells were collected when they filled about half of the tissue culture plate). They were placed into growth media in a Gorjaew-chamber, counted and subsequently resuspended in medium at a concentration of 50-100×10^6/ml. The cell solutions were placed into the 96 well plates after the addition of the various concentrations of the trial fractions in a total amount of 100 μl. […] As a next step culture medium was removed by suction with a pump and 150 μl dimethyl sulfoxide (DMSO) were added to each well to dissolve blue formazan crystals, which had formed, and the optical density of the solution in each well was detected with a multichannel spectrophotometer with a microplate reader at a wave length of 540 nm (Labsystem). […]

For a further test, the system named is HepG2 cells. Particulars: Homo sapiens. As to the method: as §1, §2, §3, §4
A further test deals with MCF-7 cells. Particulars: Homo sapiens, MCF7. The protocol:
as §1, §2, §3, §4

Consider `COc1cccc2c1C(=O)c1c(O)c3c(c(O)c1C2=O)C[C@@](O)(C(=O)CO)C[C@@H]3O[C@H]1C[C@H](N)[C@H](O)[C@H](C)O1` [doxorubicin], for which the IC50 (in general, the concentration that gives 50% inhibition) was 400 nM in the test on HeLa cells, 100 nM with HepG2 cells and 150 nM with MCF-7 cells.
